The record followed here is the supplement of paper PMC5407854, “Inhibitor of ppGalNAc-T3-mediated O-glycosylation blocks cancer cell invasiveness and lowers FGF23 levels” (eLife, 2017).

This is one part of the list. Most values lie at the level of the controls, where differences are scatter.

One experiment concerns ppGalNAc-T3 sensor. Put plainly: T3 sensor activation Q score (MG/GFP ratio z-score vs DMSO controls) (SD units); higher = more sensor activation (inhibition of ppGalNAc-T3 glycosylation). The settings on record: HEK293 sensor cells; 10 µM; 6 h. The protocol: (§1)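 Cells were treated with compound at 10 uM for 6 h, then MG/GFP ratio was read by flow cytometry (10,000 cells per well, duplicate wells). Q = (R - R_neg)/SD_neg relative to DMSO vehicle controls; the signal rises when the glycosyltransferase is inhibited.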

The subject of a further experiment is ppGalNAc-T2 sensor. The experiment in a line: T2 sensor activation Q score (MG/GFP ratio z-score vs DMSO controls) (SD units); higher = more sensor activation (inhibition of ppGalNAc-T2 glycosylation). Conditions: HEK293 sensor cells; 10 µM; 6 h. The protocol:
as §1

On to `CCc1cccc(NC2CC(=O)N(c3cccc(Cl)c3)C2=O)c1` (centres undefined), for which the “T3 sensor activation Q score” value with ppGalNAc-T3 sensor is -0.17. For the same molecule, the “T2 sensor activation Q score” value in the experiment on ppGalNAc-T2 sensor was -0.395.

`Cc1ccccc1C(=O)NCCSC1CCCCC1`: the “T3 sensor activation Q score” value in the experiment on ppGalNAc-T3 sensor came to 1.31. For the same molecule, the “T2 sensor activation Q score” value in the experiment on ppGalNAc-T2 sensor is 0.34.

For `O=C(Nc1cccc2cccnc12)NC1CCCCC1`, the “T3 sensor activation Q score” value in the experiment on ppGalNAc-T3 sensor came out at 0.7. Moreover, the “T2 sensor activation Q score” value in the experiment with ppGalNAc-T2 sensor was -0.76.

Take `O=C(c1ccc(F)cc1)n1cnc2ccccc21`: the “T3 sensor activation Q score” value in the experiment with ppGalNAc-T3 sensor is -0.205. In the experiment on ppGalNAc-T2 sensor, the “T2 sensor activation Q score” value is -0.365.

For the molecule `O=c1[nH]c(CSCCO)nc2c1C1(CCCCC1)Cc1ccccc1-2`, the “T3 sensor activation Q score” value in the experiment on ppGalNAc-T3 sensor amounted to 0.49. Besides, the “T2 sensor activation Q score” value with ppGalNAc-T2 sensor was 0.28.

In the case of `CC(NC(=O)C1CCCCC1C(=O)O)c1ccccc1` (centres undefined), the “T3 sensor activation Q score” value in the experiment on ppGalNAc-T3 sensor was 0.265. Further, the “T2 sensor activation Q score” value in the experiment with ppGalNAc-T2 sensor is -0.85.

In the case of `Cc1ccc(OCC(O)CN(C)C2CCCCC2)cc1C` (centres undefined), in the experiment with ppGalNAc-T3 sensor, the “T3 sensor activation Q score” value is 0.565. For the same molecule, the “T2 sensor activation Q score” value with ppGalNAc-T2 sensor is -0.625.
